Assay results reported in paper PMC11293393.
No constants are given. Whether binding was seen depends on the method and setting. In cells and extracts the contact can be indirect. Here binding means that the protein was enriched with, or labelled near, the bait; the list need not be complete. No binding means not detected with the bait. Tags and fused reporters may be left off the sequences shown. Values belong to the binder of their own block, whether it stands above or below them.

How the values were obtained:
[1] = molecular target: T1, ADNP^FKBP-3xFLAG-Avi (mouse (endogenous in mouse ES cells)) (UniProt Q9Z103); experiment: affinity purification with mass spectrometry; purification of ADNP ('vice versa'); the paper does not tell which experiment
T1 sequence: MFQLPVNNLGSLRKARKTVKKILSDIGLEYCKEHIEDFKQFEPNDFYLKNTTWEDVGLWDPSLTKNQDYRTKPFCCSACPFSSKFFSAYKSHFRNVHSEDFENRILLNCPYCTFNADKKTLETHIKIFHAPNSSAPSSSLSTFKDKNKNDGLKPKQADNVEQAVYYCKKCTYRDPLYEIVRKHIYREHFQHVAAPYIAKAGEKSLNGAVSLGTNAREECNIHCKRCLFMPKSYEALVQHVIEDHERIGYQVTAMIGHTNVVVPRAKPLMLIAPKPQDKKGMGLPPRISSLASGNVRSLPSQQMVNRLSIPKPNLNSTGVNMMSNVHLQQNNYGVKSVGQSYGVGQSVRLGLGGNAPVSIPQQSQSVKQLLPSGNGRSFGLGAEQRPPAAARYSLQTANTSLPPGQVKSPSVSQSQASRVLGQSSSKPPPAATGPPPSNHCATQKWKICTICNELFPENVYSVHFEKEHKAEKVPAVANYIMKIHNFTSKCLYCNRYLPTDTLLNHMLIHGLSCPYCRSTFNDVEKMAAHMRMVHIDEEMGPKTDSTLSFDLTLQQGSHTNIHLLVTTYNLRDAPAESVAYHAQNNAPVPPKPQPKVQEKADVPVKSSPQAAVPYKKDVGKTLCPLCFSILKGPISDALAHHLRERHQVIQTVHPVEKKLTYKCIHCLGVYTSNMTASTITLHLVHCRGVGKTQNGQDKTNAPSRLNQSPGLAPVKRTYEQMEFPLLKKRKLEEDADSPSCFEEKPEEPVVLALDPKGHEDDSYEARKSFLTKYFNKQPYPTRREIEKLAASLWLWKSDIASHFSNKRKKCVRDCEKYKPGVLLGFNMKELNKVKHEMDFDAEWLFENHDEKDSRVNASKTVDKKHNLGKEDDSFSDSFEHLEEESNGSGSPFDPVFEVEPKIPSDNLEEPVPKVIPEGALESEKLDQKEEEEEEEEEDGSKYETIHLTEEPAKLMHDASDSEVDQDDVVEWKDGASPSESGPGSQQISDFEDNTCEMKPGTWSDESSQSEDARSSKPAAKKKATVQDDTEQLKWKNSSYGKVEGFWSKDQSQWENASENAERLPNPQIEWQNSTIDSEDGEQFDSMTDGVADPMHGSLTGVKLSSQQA

[2] = molecular target: T2, ADNP2^Avi-3xFLAG (mouse (endogenous in mouse ES cells)) (UniProt Q8CHC8); experiment: affinity purification with mass spectrometry; streptavidin M280 Dynabeads on lysate of mouse ES cells expressing ADNP2^Avi-3xFLAG, parental untagged cells as control, 350 mM NaCl, on-bead digestion, LC-MS, n = 3
T2 sequence: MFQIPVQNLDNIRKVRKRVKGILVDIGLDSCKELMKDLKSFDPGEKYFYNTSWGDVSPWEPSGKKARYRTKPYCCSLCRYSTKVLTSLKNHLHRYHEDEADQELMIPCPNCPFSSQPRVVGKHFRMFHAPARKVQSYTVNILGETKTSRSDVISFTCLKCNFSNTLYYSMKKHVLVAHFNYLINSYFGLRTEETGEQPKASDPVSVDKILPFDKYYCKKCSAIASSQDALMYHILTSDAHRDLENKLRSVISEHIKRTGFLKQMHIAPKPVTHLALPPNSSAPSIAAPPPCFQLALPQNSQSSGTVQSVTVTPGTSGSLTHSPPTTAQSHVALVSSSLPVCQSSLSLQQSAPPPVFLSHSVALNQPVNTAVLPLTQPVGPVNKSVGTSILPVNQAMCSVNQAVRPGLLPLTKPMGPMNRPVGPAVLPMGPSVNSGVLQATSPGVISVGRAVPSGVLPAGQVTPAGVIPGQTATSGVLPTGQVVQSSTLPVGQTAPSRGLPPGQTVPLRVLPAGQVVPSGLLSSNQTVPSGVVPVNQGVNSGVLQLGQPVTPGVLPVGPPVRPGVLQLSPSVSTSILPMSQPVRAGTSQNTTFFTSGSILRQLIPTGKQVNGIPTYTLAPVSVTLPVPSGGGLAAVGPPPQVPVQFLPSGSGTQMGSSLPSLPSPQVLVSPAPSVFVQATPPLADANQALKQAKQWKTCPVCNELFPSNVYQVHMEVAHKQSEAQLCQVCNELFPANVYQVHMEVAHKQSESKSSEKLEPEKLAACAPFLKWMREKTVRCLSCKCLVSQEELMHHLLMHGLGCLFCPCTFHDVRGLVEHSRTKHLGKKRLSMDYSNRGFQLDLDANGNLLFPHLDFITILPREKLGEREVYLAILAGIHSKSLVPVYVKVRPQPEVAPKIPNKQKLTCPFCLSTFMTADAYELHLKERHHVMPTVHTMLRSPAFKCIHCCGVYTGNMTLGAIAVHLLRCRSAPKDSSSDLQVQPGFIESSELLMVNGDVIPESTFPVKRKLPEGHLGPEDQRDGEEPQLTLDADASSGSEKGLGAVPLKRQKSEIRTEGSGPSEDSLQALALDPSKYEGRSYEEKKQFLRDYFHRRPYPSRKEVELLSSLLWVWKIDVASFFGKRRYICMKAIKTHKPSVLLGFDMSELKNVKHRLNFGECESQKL

binding [1]: no binding
B1: ADNP2 (protein, UniProt Q8CHC8 1-1165)
chain: T2 sequence

binding [2]: no binding
B2: ADNP (protein, UniProt Q9Z103 1-1108)
chain: T1 sequence
